# Hit rate of the full screen: of about 52,000 sequences, about 210 (0.4%) were called active.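 How the source made its calls: active means gene whose silencing raises cell survival under the drug, median off-target-corrected z-score across its silencing RNAs 2 or more; inactive means the rest.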 The list shows a part of the results.
# Assay: Resistance to Poly (ADP-Ribose) Polymerase inhibitor: Gene Identification via Genome-wide siRNA Screen
# Details: mouse BRCA2 R2336H ES cells, olaparib, CellTiter-Glo viability; stronger effect = higher value
# Outline: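 Mouse BRCA2 R2336H ES cells were reverse-transfected with siRNA (20 nM final), treated at 48 h with 500 nM olaparib, and read by CellTiter-Glo after 72 h. Scores: MAD-based z per siRNA, median per gene, seed off-target correction.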
row,Sequence,z-score
1,GCUACAAGACUUUUACCAGTT against Tnfsf18,inactive: 0.456
2,GGAACAGGCAACAUGAUUGTT against Nlgn3,inactive: -0.109
3,CCCUGGCGAAUCAGAUUGCTT against Gm110,inactive: -1.38
4,GCUCUCCUGUUACUUAUAUTT against Maoa,inactive: -0.288
5,GGCUAUGUGUUGGAGUUCUTT against Mybph,inactive: 0.538
6,GGUCCUAGACUGGUGUCAUTT against Deadc1,inactive: -0.225
7,CCAAGAAAGACAGUAACUATT against 4930432K21Rik,inactive: -1.29
8,GGCGAAAGAUGAACCACCATT against 0610033H09Rik,inactive: 0.239
9,GGGAAAUGACCUUCAUUGGTT against Rbl2,inactive: 0.53
10,GGGUUUGAACUGGUGAUUGTT against 1700022C02Rik,inactive: 1.24
11,GCAUUAAAGGAGUCCGAAUTT against Cpn1,inactive: -0.212
12,GCUUAGUCGGGAGAACUUUTT against Skp2,inactive: -0.968
13,UGGUAAGUAUUCAUGAAUCTT against V1rh13,inactive: -1.36
14,GGAUGUGAACCUAAGUACUTT against Nup107,inactive: -1.76
15,GCAGAUAUUUUUGUAAGCATT against Csmd1,inactive: -0.975
16,GGUGGAUCUUCCUCAAAGUTT against 0610041B22Rik,inactive: -0.832
17,GGCGAACAGAGAGAGUUAGTT against 4921524J17Rik,inactive: 2.08
18,CGAUGUAAGGAAAGAAAGGTT against Cd14,inactive: -0.317
19,GGGCAUAUGAGAUUUAUUATT against Trappc2,inactive: 0.78
20,GGACAUCAAAGAAAAGUCATT against Gpr171,inactive: -0.0204
21,GGCAAUGCCACAUUUAGAUTT against Gprc2a,inactive: -0.477
22,GCCAUAGCUAUUGUCAUUCTT against Mmp16,inactive: 1.66
23,CCAUCCUAAGCAGAGUCACTT against MGC73851,inactive: 0.953
24,GGGCAUCUACUUUAAACUCTT against Mgat3,inactive: 1.28
25,GCAGAAGUCUCGUAUCCAGTT against Arl6ip4,inactive: 1.89
26,CCAUUAUAACACCUAUGCATT against Fgf7,inactive: -0.358
27,GCAGAUGCUGGUUUAAACATT against Za20d2,inactive: 3.22
28,GGUAGUUCUGAAAAAGAAGTT against Slc7a11,inactive: -1.4
29,CCUUUAAACUUCAAGAAGCTT against Btk,inactive: -0.0971

# From no. 5 up to 6, as listed above:
row,Sequence,z-score
5,GGCUAUGUGUUGGAGUUCUTT against Mybph,inactive: 0.538
6,GGUCCUAGACUGGUGUCAUTT against Deadc1,inactive: -0.225

# Reference: PubChem BioAssay AID1347423 (Functional Genomics Laboratory (NCATS/FGL), 2020)
